The list shows a part of the results.
Key:
Assay in all cases: log2 fold change, soluble protein after heating vs DMSO (PISA); higher = thermal stabilisation; K562 cells, 10 uM, 30 min; active = over 0.2 and 3.5 SD of the protein, either way, in both replicates (recomputed)
[1] = compound: NC(=O)Nc1cc(-c2cccc(F)c2)sc1C(=O)N[C@H]1CCCNC1
In short: (§1)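 Thermal stability values are relative to control samples and come from duplicates. They are expressed as log2 fold changes. For measurement, K562 cells (2×10^6 cells/mL) received 10 μM compound for 30 min, and aliquots were heated for 3 min over 48°C-58°C, pooled, and extracted at 4°C in PBS with 0.5% NP-40. Soluble protein, the supernatant after 21,000xg for 90 min, was quantified by TMTpro 16plex LC-MS/MS with equalised channel sums.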

By UniProt entry, the sequences of proteins in these tests, tags left out. Where a name states a change or a piece, a line headed by the entry shows the natural chain unless it says otherwise.
UniProt Q15637: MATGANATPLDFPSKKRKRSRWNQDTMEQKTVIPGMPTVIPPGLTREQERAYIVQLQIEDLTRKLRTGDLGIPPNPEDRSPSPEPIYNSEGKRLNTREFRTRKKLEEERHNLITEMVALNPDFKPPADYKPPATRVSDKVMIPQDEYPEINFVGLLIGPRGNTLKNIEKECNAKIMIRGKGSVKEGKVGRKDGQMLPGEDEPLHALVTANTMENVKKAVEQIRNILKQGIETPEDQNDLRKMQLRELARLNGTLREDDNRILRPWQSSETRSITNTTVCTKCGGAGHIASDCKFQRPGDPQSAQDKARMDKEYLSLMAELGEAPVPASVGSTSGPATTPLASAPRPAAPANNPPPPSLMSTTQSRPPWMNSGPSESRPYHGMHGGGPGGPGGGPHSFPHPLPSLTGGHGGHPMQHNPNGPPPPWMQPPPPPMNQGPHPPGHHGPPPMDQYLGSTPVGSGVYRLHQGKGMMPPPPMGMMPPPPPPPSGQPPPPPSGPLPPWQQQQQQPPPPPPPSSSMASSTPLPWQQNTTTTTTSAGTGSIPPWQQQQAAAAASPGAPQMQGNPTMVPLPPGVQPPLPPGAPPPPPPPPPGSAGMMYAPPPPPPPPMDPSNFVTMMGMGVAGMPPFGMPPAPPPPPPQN
UniProt Q9UGK8: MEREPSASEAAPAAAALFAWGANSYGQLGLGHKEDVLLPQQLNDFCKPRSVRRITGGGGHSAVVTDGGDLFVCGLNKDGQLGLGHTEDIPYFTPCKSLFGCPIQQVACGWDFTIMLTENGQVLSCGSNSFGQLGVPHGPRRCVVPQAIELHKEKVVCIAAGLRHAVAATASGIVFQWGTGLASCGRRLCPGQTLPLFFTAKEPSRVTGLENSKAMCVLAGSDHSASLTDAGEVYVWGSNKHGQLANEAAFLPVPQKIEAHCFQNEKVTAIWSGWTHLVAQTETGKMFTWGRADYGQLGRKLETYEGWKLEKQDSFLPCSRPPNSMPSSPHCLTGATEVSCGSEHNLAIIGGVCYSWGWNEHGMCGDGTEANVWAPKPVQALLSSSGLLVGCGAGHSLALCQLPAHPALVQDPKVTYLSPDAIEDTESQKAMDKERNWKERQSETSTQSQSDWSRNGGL
UniProt Q96EQ0: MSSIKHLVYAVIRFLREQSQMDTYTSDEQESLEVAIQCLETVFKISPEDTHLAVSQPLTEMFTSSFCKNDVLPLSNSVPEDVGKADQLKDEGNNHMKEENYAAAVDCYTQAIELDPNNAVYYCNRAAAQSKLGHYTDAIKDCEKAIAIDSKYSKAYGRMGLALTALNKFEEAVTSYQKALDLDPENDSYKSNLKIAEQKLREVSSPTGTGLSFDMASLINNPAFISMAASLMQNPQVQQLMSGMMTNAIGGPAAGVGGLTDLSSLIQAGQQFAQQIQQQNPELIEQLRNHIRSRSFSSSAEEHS
UniProt O95470: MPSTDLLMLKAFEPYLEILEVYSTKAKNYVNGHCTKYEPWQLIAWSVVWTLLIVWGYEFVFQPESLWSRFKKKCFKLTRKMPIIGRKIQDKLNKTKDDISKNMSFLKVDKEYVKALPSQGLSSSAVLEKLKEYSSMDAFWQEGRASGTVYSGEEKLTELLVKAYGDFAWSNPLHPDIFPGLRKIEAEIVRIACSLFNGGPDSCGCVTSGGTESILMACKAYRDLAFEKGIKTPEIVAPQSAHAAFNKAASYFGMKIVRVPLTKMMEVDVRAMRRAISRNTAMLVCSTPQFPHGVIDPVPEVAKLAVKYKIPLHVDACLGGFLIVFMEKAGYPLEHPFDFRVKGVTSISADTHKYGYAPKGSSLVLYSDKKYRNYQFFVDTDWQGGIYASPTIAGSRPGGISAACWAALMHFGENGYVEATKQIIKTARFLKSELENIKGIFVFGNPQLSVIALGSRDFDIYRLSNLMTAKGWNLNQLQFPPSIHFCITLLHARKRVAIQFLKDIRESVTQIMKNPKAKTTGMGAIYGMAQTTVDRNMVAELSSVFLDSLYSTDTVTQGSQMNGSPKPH
UniProt P29353: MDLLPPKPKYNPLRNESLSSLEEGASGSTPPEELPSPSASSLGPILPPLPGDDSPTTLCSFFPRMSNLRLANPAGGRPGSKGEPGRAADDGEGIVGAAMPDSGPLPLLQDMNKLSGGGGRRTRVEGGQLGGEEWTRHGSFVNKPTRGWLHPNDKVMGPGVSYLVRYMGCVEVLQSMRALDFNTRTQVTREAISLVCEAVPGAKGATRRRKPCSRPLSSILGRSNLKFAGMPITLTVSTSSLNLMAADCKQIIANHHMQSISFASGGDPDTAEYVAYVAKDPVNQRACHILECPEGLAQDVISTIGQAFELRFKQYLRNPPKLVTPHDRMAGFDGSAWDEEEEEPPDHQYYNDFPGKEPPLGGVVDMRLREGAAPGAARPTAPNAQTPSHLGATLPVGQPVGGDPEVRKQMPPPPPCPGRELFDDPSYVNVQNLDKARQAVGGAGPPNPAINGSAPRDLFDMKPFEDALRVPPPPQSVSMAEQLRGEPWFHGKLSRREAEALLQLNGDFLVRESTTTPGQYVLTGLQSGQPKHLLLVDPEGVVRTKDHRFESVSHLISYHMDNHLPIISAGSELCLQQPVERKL
UniProt Q86VZ5: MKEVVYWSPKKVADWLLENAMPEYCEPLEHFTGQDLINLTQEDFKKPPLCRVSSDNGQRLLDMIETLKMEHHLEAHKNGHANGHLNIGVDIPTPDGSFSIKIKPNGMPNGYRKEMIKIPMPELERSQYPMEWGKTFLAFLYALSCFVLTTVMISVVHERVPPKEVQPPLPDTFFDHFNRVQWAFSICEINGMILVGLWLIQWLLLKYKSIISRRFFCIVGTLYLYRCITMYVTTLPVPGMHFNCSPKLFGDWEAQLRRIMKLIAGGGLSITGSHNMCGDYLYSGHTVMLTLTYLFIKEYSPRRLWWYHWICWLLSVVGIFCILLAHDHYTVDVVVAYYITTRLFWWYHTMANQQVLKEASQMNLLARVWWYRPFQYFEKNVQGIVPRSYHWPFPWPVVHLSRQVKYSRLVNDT
UniProt A1X283: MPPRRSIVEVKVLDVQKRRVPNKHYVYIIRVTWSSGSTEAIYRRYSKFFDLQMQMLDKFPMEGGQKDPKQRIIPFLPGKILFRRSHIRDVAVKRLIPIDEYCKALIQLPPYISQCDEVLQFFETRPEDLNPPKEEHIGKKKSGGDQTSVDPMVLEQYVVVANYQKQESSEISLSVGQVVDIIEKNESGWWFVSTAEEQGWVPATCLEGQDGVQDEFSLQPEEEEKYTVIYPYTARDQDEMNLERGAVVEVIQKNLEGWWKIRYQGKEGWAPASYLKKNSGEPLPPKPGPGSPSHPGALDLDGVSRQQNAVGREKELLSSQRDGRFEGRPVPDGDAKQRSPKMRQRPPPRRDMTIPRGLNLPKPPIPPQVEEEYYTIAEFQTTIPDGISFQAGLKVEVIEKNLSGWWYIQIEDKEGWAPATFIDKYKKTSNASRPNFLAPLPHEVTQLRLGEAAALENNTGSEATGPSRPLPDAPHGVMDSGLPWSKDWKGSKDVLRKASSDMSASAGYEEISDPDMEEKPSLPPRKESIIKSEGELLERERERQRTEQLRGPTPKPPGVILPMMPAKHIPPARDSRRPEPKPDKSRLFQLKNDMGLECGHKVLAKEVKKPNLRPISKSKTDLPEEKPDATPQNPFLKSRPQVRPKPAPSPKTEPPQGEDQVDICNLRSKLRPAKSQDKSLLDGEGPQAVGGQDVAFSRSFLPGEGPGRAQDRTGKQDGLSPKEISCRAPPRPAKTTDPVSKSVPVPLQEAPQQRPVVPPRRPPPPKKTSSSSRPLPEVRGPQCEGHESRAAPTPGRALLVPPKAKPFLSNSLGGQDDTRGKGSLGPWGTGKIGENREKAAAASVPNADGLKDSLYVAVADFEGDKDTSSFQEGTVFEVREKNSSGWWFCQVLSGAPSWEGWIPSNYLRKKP
UniProt Q15019: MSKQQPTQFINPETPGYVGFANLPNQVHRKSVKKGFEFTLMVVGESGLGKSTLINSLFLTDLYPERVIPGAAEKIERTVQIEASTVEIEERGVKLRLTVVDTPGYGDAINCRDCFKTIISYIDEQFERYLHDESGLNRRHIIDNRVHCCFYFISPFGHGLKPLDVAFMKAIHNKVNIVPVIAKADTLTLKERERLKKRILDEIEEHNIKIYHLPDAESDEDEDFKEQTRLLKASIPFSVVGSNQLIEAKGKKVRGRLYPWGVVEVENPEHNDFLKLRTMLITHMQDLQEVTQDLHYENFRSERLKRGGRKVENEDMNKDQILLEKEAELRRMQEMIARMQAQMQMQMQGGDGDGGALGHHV
UniProt P63208, whole entry, looked up: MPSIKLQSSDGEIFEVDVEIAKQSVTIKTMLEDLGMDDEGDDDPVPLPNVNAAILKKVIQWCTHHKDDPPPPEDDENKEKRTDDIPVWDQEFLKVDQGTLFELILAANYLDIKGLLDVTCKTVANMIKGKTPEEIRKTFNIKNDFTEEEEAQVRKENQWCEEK
UniProt Q99961: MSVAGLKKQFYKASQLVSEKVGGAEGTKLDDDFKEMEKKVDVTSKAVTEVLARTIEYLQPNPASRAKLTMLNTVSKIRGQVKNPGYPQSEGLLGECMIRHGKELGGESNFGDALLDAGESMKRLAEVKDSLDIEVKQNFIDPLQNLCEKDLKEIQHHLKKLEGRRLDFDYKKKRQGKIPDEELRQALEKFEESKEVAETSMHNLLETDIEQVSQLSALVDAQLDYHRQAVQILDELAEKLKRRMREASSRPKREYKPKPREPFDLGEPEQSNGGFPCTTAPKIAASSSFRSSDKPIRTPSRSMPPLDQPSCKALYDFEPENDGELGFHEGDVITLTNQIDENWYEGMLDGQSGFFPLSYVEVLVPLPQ
UniProt Q9NR46: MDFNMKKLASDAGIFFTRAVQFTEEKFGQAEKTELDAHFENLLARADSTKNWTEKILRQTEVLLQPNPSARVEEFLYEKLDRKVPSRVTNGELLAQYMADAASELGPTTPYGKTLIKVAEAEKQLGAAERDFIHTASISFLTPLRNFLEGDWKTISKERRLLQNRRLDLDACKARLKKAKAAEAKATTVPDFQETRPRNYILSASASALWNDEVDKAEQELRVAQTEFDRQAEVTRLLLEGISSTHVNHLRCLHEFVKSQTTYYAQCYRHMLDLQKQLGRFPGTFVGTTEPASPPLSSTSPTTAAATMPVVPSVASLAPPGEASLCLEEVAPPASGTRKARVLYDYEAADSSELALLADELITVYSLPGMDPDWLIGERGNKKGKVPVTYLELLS
UniProt Q96FS4: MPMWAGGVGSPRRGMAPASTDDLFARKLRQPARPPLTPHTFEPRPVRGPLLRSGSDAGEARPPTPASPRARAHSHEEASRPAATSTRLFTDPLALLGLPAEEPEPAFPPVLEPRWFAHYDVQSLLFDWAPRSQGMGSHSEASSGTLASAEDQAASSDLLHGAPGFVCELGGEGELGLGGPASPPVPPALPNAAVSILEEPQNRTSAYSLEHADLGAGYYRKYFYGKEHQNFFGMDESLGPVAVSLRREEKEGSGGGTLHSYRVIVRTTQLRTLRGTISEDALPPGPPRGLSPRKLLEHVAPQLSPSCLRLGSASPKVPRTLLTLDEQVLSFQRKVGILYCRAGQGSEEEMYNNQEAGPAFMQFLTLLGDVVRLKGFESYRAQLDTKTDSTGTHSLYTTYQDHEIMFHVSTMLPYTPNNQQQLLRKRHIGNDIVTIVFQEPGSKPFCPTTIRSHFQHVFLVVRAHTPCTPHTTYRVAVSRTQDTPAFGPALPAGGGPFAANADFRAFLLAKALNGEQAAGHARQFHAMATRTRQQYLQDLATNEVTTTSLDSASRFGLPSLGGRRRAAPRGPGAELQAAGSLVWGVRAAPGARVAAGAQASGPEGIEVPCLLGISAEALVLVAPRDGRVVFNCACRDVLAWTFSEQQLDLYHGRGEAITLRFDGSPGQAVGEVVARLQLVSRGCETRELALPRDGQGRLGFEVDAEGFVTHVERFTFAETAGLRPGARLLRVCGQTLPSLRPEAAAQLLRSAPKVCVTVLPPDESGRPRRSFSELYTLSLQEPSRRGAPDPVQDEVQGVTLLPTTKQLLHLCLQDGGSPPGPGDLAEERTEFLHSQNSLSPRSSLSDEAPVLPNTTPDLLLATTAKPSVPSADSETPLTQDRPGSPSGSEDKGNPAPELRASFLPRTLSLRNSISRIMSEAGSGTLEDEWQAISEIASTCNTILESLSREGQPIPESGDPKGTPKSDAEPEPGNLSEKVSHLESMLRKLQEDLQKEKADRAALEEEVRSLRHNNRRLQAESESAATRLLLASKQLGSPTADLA
UniProt P50452: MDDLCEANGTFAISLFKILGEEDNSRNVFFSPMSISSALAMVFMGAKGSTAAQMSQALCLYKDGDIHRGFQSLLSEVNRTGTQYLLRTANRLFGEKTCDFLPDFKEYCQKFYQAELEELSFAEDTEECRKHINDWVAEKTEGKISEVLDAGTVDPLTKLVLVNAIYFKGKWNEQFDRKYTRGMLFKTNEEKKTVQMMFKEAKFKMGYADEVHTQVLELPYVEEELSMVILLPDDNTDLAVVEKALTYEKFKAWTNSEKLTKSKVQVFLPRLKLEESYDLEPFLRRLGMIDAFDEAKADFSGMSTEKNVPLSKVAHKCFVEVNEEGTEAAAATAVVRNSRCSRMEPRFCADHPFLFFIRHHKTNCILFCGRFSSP

[2] = compound: NC(=O)c1cnc(N[C@@H]2CCCC[C@@H]2N)nc1Nc1cccc(-n2nccn2)c1
In short: as §1

[3] = compound: NC1(c2ccc(-c3nc4ccn5c(=O)[nH]nc5c4cc3-c3ccccc3)cc2)CCC1
In short: as §1

[4] = compound: NCC(=O)Nc1ccc(-n2nc(C(F)(F)F)cc2-c2ccc3c(ccc4ccccc43)c2)cc1
In short: as §1

entinostat = compound: Nc1ccccc1NC(=O)c1ccc(CNC(=O)OCc2cccnc2)cc1 [entinostat]
In short: as §1

vorinostat = compound: O=C(CCCCCCC(=O)Nc1ccccc1)NO [vorinostat]
In short: as §1

citarinostat = compound: O=C(CCCCCCNC(=O)c1cnc(N(c2ccccc2)c2ccccc2Cl)nc1)NO [citarinostat]
In short: as §1

silmitasertib = compound: O=C(O)c1ccc2c(c1)nc(Nc1cccc(Cl)c1)c1ccncc12 [silmitasertib]
In short: as §1

[5] = compound: O=C1NC(=O)C(c2cnc3ccccn23)=C1c1cn2c3c(cc(F)cc13)CN(C(=O)N1CCCCC1)CC2
In short: as §1

[6] = compound: c1cc(OCCN2CCCCC2)cc(-c2n[nH]c3ccc(-c4nnc[nH]4)cc23)c1
In short: as §1

Measured: log2 fold change

SF1 isoform 5 (UniProt Q15637)
inactive: [1] -0.018 | [2] -0.004 | [3] 0.033 | [4] 0.034 | entinostat -0.007 | vorinostat -0.028 | citarinostat 0.024 | silmitasertib -0.026 | [5] 0.008 | [6] -0.039

SETDB1 (UniProt Q15047)
inactive: [1] 0.075 | [2] -0.066 | [3] -0.137 | [4] -0.033 | entinostat -0.011 | vorinostat 0.073 | citarinostat -0.017 | silmitasertib -0.07 | [5] -0.37 | [6] 0.02

SERGEF (UniProt Q9UGK8)
inactive: [1] -0.044 | [2] -0.03 | [3] -0.091 | [4] 0.061 | entinostat 0.026 | vorinostat 0.114 | citarinostat 0.099 | silmitasertib -0.07 | [5] 0.024 | [6] -0.072

SH3BP1 (UniProt Q9Y3L3)
inactive: [1] 0.006 | [2] -0.033 | [3] -0.088 | [4] 0.031 | entinostat -0.034 | vorinostat -0.003 | citarinostat 0.034 | silmitasertib 0.025 | [5] 0.01 | [6] -0.002

SEPTIN7 (UniProt Q16181)
inactive: [1] -0.029 | [2] 0.036 | [3] -0.036 | [4] 0.041 | entinostat -0.004 | vorinostat -0.035 | citarinostat 0.011 | silmitasertib -0.033 | [5] -0.061 | [6] -0.008

SERPINH1 (UniProt P50454)
inactive: [1] -0.025 | [2] 0.034 | [3] -0.014 | [4] 0.016 | entinostat 0 | vorinostat -0.008 | citarinostat 0.025 | silmitasertib 0.003 | [5] -0.026 | [6] -0.036

SGTB (UniProt Q96EQ0)
inactive: [1] -0.012 | [2] -0.084 | [3] -0.04 | [4] -0.021 | entinostat 0.005 | vorinostat 0.072 | citarinostat 0.013 | silmitasertib 0.101 | [5] 0.006 | [6] -0.041

Reprinted from the results shown (2 entries):
SH3BP1 (UniProt Q9Y3L3)
inactive: [1] 0.006 | [2] -0.033 | [3] -0.088 | [4] 0.031 | entinostat -0.034 | vorinostat -0.003 | citarinostat 0.034 | silmitasertib 0.025 | [5] 0.01 | [6] -0.002

SEPTIN7 (UniProt Q16181)
inactive: [1] -0.029 | [2] 0.036 | [3] -0.036 | [4] 0.041 | entinostat -0.004 | vorinostat -0.035 | citarinostat 0.011 | silmitasertib -0.033 | [5] -0.061 | [6] -0.008

Further results

SEPTIN9 (UniProt Q9UHD8)
inactive: [1] -0.013 | [2] -0.061 | [3] -0.052 | [4] -0.021 | entinostat 0.011 | vorinostat -0.004 | citarinostat 0.035 | silmitasertib -0.029 | [5] -0.084 | [6] -0.025

SERPINB6, A0A087X1N8
inactive: [1] 0.019 | [2] 0.001 | [3] -0.012 | [4] 0.043 | entinostat -0.02 | vorinostat -0.004 | citarinostat 0.021 | silmitasertib 0.005 | [5] -0.016 | [6] -0.012

SF1 isoform 6 (UniProt Q15637)
inactive: [1] -0.202 | [2] 0.071 | [3] -0.042 | [4] 0.019 | entinostat -0.013 | vorinostat -0.113 | citarinostat -0.008 | silmitasertib -0.128 | [5] -0.424 | [6] -0.046

SGPL1 (UniProt O95470)
inactive: [1] -0.01 | [2] 0.004 | [3] -0.005 | [4] 0.144 | entinostat 0 | vorinostat -0.014 | citarinostat 0.009 | silmitasertib -0.034 | [5] 0.064 | [6] -0.134

SHC1 isoform 6 (UniProt P29353)
inactive: [1] -0.024 | [2] -0.026 | [3] 0.022 | [4] -0.008 | entinostat -0.017 | vorinostat 0.035 | citarinostat 0.019 | silmitasertib -0.011 | [5] -0.034 | [6] -0.08

SETD3 (UniProt Q86TU7)
inactive: [1] -0.007 | [2] -0.019 | [3] -0.045 | [4] -0.002 | entinostat -0.02 | vorinostat -0.035 | citarinostat -0.015 | silmitasertib 0.007 | [5] -0.022 | [6] 0.031

SFXN1 (UniProt Q9H9B4)
inactive: [1] 0.053 | [2] -0.033 | [3] -0.013 | [4] -0.016 | entinostat 0.077 | vorinostat 0.036 | citarinostat 0.067 | silmitasertib -0.027 | [5] -0.025 | [6] 0.014

SGMS1 (UniProt Q86VZ5)
inactive: [1] -0.058 | [2] 0.048 | [3] -0.046 | [4] 0.015 | entinostat -0.061 | vorinostat -0.009 | citarinostat 0.06 | silmitasertib 0.009 | [5] -0.066 | [6] -0.113

SEPHS2 (UniProt Q99611)
inactive: [1] 0.078 | [2] 0.022 | [3] 0.031 | [4] 0.037 | entinostat 0.01 | vorinostat 0.093 | citarinostat 0.124 | silmitasertib 0.052 | [5] 0.091 | [6] 0.176

SFXN5 (UniProt Q8TD22)
inactive: [1] -0.043 | [2] 0.042 | [3] -0.072 | [4] -0.095 | entinostat -0.068 | vorinostat 0.019 | citarinostat -0.028 | silmitasertib -0.003 | [5] 0.012 | [6] 0.072

SH3PXD2B (UniProt A1X283)
inactive: [1] 0.066 | [2] 0.248 | [3] -0.082 | [4] 0.052 | entinostat -0.056 | vorinostat -0.128 | citarinostat 0.032 | silmitasertib -0.108 | [5] 0.009 | [6] 0.026

SIRT2 (UniProt Q8IXJ6)
inactive: [1] -0.048 | [2] 0.023 | [3] -0.07 | [4] -0.066 | entinostat -0.02 | vorinostat -0.039 | citarinostat -0.022 | silmitasertib -0.035 | [5] -0.035 | [6] 0.033

SEPTIN2 isoform 2 (UniProt Q15019)
inactive: [1] -0.053 | [2] -0.011 | [3] 0.005 | [4] -0.034 | entinostat -0.032 | vorinostat -0.033 | citarinostat 0.005 | silmitasertib -0.001 | [5] -0.043 | [6] -0.043

SKP1 (UniProt P63208)
inactive: [1] 0.015 | [2] 0.011 | [3] 0.034 | [4] 0.047 | entinostat 0.037 | vorinostat 0.16 | citarinostat -0.003 | silmitasertib 0 | [5] 0.008 | [6] 0.01

SEPHS1 (UniProt P49903)
inactive: [1] 0.071 | [2] 0.015 | [3] 0.006 | [4] -0.006 | entinostat 0.018 | vorinostat -0.014 | citarinostat 0.06 | silmitasertib -0.017 | [5] 0.08 | [6] -0.01

SGF29 (UniProt Q96ES7)
inactive: [1] 0.014 | [2] -0.043 | [3] -0.029 | [4] -0.095 | entinostat 0.005 | vorinostat 0.039 | citarinostat -0.004 | silmitasertib -0.036 | [5] 0.004 | [6] -0.023

SF3B3 (UniProt Q15393)
inactive: [1] -0.037 | [2] -0.048 | [3] -0.014 | [4] -0.03 | entinostat -0.012 | vorinostat -0.003 | citarinostat 0.012 | silmitasertib 0.053 | [5] 0.047 | [6] -0.074

SH3GL1 (UniProt Q99961)
inactive: [1] -0.049 | [2] -0.088 | [3] -0.106 | [4] -0.032 | entinostat 0.143 | vorinostat 0.082 | citarinostat 0.068 | silmitasertib 0.028 | [5] 0.006 | [6] -0.041

SH3GLB2 (UniProt Q9NR46)
inactive: [1] -0.105 | [2] -0.13 | [3] -0.163 | [4] 0.004 | entinostat 0.069 | vorinostat 0.081 | citarinostat 0.059 | silmitasertib 0.015 | [5] -0.028 | [6] -0.13

SIPA1 (UniProt Q96FS4)
inactive: [1] 0.027 | [2] 0.015 | [3] -0.003 | [4] -0.003 | entinostat 0.022 | vorinostat 0.022 | citarinostat -0.013 | silmitasertib -0.012 | [5] -0.003 | [6] 0.017

SERPINB8 (UniProt P50452)
inactive: [1] -0.007 | [2] 0.09 | [3] 0.014 | [4] 0.043 | entinostat 0.033 | vorinostat -0.064 | citarinostat 0 | silmitasertib 0.02 | [5] 0.011 | [6] 0.024

SHKBP1 (UniProt Q8TBC3)
inactive: [1] -0.062 | [2] -0.047 | [3] -0.014 | [4] 0.017 | entinostat 0.027 | vorinostat -0.076 | citarinostat -0.102 | silmitasertib -0.024 | [5] -0.077 | [6] -0.123

SEMA4B (UniProt Q9NPR2)
inactive: [1] -0.003 | [2] 0.09 | [3] -0.174 | [4] -0.024 | entinostat 0.023 | vorinostat -0.021 | citarinostat 0.017 | silmitasertib 0.077 | [5] -0.11 | [6] -0.002
